We go through three substances from paper PMC7949054.

The experiment deals with T1, GFP-tagged CLASP2 (UniProt O75122).
T1 sequence: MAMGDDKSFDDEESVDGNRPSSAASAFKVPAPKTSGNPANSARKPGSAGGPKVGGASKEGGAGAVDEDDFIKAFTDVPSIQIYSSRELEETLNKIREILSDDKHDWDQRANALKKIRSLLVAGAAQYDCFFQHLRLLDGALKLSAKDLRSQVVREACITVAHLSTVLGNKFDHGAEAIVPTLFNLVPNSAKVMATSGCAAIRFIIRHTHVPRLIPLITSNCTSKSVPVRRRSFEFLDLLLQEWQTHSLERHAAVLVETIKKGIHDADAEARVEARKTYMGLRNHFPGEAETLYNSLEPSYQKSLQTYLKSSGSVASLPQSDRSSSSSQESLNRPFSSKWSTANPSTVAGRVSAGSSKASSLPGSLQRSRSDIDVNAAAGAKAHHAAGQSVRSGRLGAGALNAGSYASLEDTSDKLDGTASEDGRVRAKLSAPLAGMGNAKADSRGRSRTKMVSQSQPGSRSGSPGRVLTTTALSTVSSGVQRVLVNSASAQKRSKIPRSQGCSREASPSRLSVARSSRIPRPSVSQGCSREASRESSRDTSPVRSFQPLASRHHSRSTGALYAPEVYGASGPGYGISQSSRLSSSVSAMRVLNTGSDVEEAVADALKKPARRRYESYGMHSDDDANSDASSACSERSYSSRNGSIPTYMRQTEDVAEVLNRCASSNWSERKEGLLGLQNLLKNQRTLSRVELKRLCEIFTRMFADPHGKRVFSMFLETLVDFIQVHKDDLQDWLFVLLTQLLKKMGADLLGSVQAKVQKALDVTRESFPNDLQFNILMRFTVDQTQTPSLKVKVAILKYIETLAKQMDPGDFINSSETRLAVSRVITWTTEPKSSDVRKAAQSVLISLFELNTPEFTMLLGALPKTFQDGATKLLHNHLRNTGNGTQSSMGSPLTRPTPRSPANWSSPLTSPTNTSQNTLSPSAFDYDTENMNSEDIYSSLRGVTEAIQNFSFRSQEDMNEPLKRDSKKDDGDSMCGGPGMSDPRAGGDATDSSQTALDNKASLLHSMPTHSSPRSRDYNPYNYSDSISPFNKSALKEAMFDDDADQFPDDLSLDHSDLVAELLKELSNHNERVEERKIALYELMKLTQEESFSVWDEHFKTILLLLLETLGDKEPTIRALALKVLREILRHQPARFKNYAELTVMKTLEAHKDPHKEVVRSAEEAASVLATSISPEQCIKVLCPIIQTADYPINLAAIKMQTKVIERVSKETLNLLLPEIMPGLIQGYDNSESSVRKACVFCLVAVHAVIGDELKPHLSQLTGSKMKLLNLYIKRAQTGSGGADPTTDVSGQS
The experiment is described as follows: co-IP; lysates of HPAEC cotransfected with a GFP-tagged protein and Myc-SOCS3 or its deletion mutants (TBS-NP40); precipitated with GFP antibody, blot for Myc; in Fig. 4F also after HKSA or colchicine.

These are yes or no findings as the source states them, for the method shown. Binding seen in cells or lysates may run through a third protein. Binding calls can cover weak binding; strength is not graded here. Tags and fused reporters may be left off the sequences shown.

In the case of “Myc-tagged C-terminal SOCS3 deletion mutant (ΔC47) lacking SOCS box (domain or fragment)”, the binding result was “binds”.

As to “Myc-tagged SOCS3 ΔN36 (deletion of the first 36 amino acids) (domain or fragment)”, the binding result is listed as “no binding”. In the case of “Myc-tagged SOCS3 ΔN20 (deletion of the first 20 amino acids) (domain or fragment)”, the binding entry is “no binding”.
